# Laboratory results taken from doi:10.1101/2020.01.13.905521.
# Protein sequences, listed by entry. Tags and fused reporters are not part of them.
# UniProt Q99814: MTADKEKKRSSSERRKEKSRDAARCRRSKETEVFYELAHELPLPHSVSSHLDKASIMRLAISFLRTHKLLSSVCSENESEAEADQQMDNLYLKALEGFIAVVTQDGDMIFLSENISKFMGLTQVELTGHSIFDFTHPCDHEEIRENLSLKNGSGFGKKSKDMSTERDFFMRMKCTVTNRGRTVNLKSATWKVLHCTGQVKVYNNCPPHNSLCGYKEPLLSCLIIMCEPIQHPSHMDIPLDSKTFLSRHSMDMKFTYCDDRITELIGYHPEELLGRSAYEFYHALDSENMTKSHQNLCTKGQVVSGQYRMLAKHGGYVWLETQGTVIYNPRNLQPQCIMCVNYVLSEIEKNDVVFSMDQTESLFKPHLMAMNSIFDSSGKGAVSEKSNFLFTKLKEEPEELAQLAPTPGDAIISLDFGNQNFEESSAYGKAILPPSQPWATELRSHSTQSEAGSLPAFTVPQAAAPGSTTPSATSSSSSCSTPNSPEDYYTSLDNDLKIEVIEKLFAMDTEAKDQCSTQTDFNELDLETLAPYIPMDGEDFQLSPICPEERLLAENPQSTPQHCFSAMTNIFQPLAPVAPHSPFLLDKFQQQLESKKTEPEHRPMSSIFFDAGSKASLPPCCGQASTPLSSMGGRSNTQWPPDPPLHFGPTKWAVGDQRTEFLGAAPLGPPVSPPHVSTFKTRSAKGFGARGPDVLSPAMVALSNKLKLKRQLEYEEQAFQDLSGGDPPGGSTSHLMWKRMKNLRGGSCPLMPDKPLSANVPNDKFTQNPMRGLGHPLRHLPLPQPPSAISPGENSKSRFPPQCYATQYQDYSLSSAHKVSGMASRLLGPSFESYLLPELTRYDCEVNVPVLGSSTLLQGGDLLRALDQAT
# These are yes or no findings as the source states them, for the method shown. In cells and extracts the contact can be indirect. Some entries that bind do so weakly or less than the wild type.
# Target: T1, folliculin (FLCN) (human (endogenous in 786-O, ACHN and HK-2)) (UniProt Q8NFG4)
# T1 sequence: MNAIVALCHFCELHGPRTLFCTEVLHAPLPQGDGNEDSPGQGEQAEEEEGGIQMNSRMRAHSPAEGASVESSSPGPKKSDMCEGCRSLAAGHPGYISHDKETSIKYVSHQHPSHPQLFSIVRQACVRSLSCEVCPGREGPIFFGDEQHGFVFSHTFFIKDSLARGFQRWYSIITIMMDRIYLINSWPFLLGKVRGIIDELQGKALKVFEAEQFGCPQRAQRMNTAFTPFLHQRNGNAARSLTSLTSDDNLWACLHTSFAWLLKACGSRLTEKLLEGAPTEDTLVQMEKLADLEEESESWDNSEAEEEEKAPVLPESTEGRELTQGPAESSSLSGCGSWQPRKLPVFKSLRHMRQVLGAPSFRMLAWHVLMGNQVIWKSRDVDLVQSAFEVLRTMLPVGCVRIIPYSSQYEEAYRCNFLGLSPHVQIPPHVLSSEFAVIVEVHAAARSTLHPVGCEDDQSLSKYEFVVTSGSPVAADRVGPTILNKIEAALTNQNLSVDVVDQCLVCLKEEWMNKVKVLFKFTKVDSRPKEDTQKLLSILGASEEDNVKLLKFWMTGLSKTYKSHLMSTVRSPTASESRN
# Experiment: co-IP
substance,measurement,value
HIF2α (from UniProt Q99814 1-870),binding,binds
